From PMC7819943, “Rice protein-binding microarrays: a tool to detect cis-acting elements near promoter regions in rice”
Some of the results follow.

What follows are sequences tested against T1, OsSMF1 (Oryza sativa, UniProt Q6ZLB0 1-436) (assay: protein-binding microarray (RPBM); PBS, 2% BSA, 51.3 ng/ul salmon testes DNA, 50 uM zinc acetate, 200 nM TF, 25 C, 1 h; high values mean tight binding). Settings: protein: recombinant; tags: N-terminal polyhistidine and DsRed monomer fusion (pET32a); chain copies: 2; label: CyDye5-dUTP incorporated in the synthesized complementary strand; 3' TTTTT single-stranded linker to array surface; dsDNA, one strand shown.
T1 sequence: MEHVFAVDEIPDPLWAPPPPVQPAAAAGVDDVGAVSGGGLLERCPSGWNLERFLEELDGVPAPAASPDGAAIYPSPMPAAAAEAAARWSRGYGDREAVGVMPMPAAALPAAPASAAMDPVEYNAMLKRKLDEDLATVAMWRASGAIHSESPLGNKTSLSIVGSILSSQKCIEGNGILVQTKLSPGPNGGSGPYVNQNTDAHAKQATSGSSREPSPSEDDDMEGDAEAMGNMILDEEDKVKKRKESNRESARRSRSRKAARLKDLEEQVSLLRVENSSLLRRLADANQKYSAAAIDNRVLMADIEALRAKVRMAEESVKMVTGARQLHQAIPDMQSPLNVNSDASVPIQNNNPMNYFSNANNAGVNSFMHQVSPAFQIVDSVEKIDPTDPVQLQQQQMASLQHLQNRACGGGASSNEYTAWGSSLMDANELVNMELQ
In short: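 Binding signal is defined as the fluorescence intensity of each feature in arbitrary units, read on an Axon 4000B scanner. Transcription factors with N-terminal polyhistidine and DsRed fusions came from E. coli BL21-CodonPlus and were purified on Ni–NTA. They were incubated at 200 nM for 1 h at 25 °C on a custom Agilent array that had been made double-stranded with Cy5-dUTP, with 50 µM zinc acetate present, and the array was washed.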

Going from “ACCTCTGATTGCGTCATTCCATTTCCATGGATTGCTCGATCGGAGTCACCTAGTGCAG” to “AACCTACTATTAGCCCGTCCAGGTCATCACAATCTGAGCTCGGAGTCACCTAGTGCAG”, the binding signal rises from 7040 fluorescence intensity (a.u.) to 8060 fluorescence intensity (a.u.).

Compared with “TTCCAATCACATTCTTAGTCAACACCATCCATGCTGTCGACGGAGTCACCTAGTGCAG”, “TGCGCGTGGCTGAGGTAAACCATGACACATTAGTGCTGGACGGAGTCACCTAGTGCAG” is higher in binding signal: 3940 fluorescence intensity (a.u.) for the first, 4570 fluorescence intensity (a.u.) for the second.

First: ATCGGACCACACGTGCTGCCTCCTCCGCGACACGCAACGTCGGAGTCACCTAGTGCAG
Second: TTGATACAATAAGTAGAAGTGACGCGACAAATAATTATTTCGGAGTCACCTAGTGCAG
The binding signal of the first is higher: 3710 fluorescence intensity (a.u.) for the first, 3230 fluorescence intensity (a.u.) for the second.

Compared with “ACGCTCAATTATTCCGTGGCCACTAAGCTAAGCAACTCTGCGGAGTCACCTAGTGCAG”, “AAGTTTGGGCCGCAGGGCCCACAATAGAGGATGACACGGTCGGAGTCACCTAGTGCAG” is lower in binding signal: 8520 fluorescence intensity (a.u.) for the first, 3620 fluorescence intensity (a.u.) for the second.

First: CGCGAGTGTCCGATGACATCATATGTACGATGGCAAGCATCGGAGTCACCTAGTGCAG
Second: CATTCTCGGGCTGTCTGAGCTGCCACCTAAGTTAAGGTAACGGAGTCACCTAGTGCAG
The binding signal of the first is higher: 3710 fluorescence intensity (a.u.) for the first, 3260 fluorescence intensity (a.u.) for the second.

Compared with “GCCGACTCTTACTCCTCCGCCCACTCACCACGCGCGCTGCCGGAGTCACCTAGTGCAG”, “GAGGTAGGATGGGGTGAGCCGACGGAACTGCTGACGGAATCGGAGTCACCTAGTGCAG” is lower in binding signal: 3650 fluorescence intensity (a.u.) for the first, 3250 fluorescence intensity (a.u.) for the second.

Going from “GCGCCCACCCAATAGGACCACGCCACGTCACCGCCTACGGCGGAGTCACCTAGTGCAG” to “ATTCACAATGTAATAGGACGGACACGTCATGACAGAAGAACGGAGTCACCTAGTGCAG”, the binding signal falls from 15900 fluorescence intensity (a.u.) to 5700 fluorescence intensity (a.u.).

First: GCATACGATGGAGATATTGTGTACGTCTGGGATGTGGAGTCGGAGTCACCTAGTGCAG
Second: CATCAAGGAGGGATGGTGACACAATCGTTTATACTGGTTCCGGAGTCACCTAGTGCAG
The binding signal of the first is higher: 5520 fluorescence intensity (a.u.) for the first, 4440 fluorescence intensity (a.u.) for the second.

First: ACGGTCACGGTCCGGCCGCTCTACACGTACGTAGTACGTGCGGAGTCACCTAGTGCAG
Second: CTAGCGGCTTCCTCTCCATGCGCCAGGGCCTCGACACCGCCGGAGTCACCTAGTGCAG
The binding signal of the first is higher: 25100 fluorescence intensity (a.u.) for the first, 3190 fluorescence intensity (a.u.) for the second.

Compared with “GGAGATTGGACCCCGCCGCATCTCCACGTCTCCTTCCGCCCGGAGTCACCTAGTGCAG”, “ACAGACTCCGTCTCGGAGACTCTCCCGCTGACTGACACCTCGGAGTCACCTAGTGCAG” is lower in binding signal: 5000 fluorescence intensity (a.u.) for the first, 3320 fluorescence intensity (a.u.) for the second.

First: CGGACTCCCATATCAAAATTTATTAAGACTCTGCATGCCTCGGAGTCACCTAGTGCAG
Second: ATGATGCTGGATTGCTGGATACTGCATCAACATCATTAAGCGGAGTCACCTAGTGCAG
The binding signal of the first is lower: 13800 fluorescence intensity (a.u.) for the first, 44500 fluorescence intensity (a.u.) for the second.

Going from “ACCTAATCCCACAGCTGGTCGCGACGTGGTCTGAAAACGTCGGAGTCACCTAGTGCAG” to “TGGTGGTGGTGGGGAGCGGCCTTTATCCGTGGCGTTGGCACGGAGTCACCTAGTGCAG”, the binding signal falls from 3540 fluorescence intensity (a.u.) to 3350 fluorescence intensity (a.u.).

First: AGTATGCTTTTCTTAACGATGACGTCAGCATACACCTCGGCGGAGTCACCTAGTGCAG
Second: CACATGTCAGTGACTCAATGTCACCGAGAATATCACGGGGCGGAGTCACCTAGTGCAG
The binding signal of the first is higher: 45200 fluorescence intensity (a.u.) for the first, 4650 fluorescence intensity (a.u.) for the second.

Compared with “ATGCATGACTCAGCTCGCATCCGCATCGTGCATTCGTGCCCGGAGTCACCTAGTGCAG”, “AAATTTTAATACGTGTAGCATTGCTCCCGGTAATGTATTTCGGAGTCACCTAGTGCAG” is lower in binding signal: 10200 fluorescence intensity (a.u.) for the first, 3700 fluorescence intensity (a.u.) for the second.

First: CGTTTGCTCTTGTTCCGTTAATTCTTACTAACCTTAACTGCGGAGTCACCTAGTGCAG
Second: ATGCACATTTGCCACCTAGGCCTACATGTCAGTCTCAGCCCGGAGTCACCTAGTGCAG
The binding signal of the first is lower: 3330 fluorescence intensity (a.u.) for the first, 6980 fluorescence intensity (a.u.) for the second.

First: GTGTGTTCACAACGCAAAGACGATGACTGTAGTAGTATCTCGGAGTCACCTAGTGCAG
Second: ATATATATGACCAACCATTTCAGCTAACGAGTAGCTATCCCGGAGTCACCTAGTGCAG
The binding signal of the first is higher: 4250 fluorescence intensity (a.u.) for the first, 3760 fluorescence intensity (a.u.) for the second.

Compared with “ATTAACCTCAGGAGTTAGGAGTACAAAATAGTATACCTTTCGGAGTCACCTAGTGCAG”, “AGAGGAAGAGGAAGAAGAGGTCATTCCGCCACGTCCCGGACGGAGTCACCTAGTGCAG” is lower in binding signal: 28000 fluorescence intensity (a.u.) for the first, 7090 fluorescence intensity (a.u.) for the second.

Compared with “ACTCTACCACCATCATTAGCCAGGCTATATCTCAAGCACACGGAGTCACCTAGTGCAG”, “AGCAGCAAAGCTCACGTTGCTACACGAGTCACGTCTCGCTCGGAGTCACCTAGTGCAG” is lower in binding signal: 14100 fluorescence intensity (a.u.) for the first, 3270 fluorescence intensity (a.u.) for the second.

Going from “TGGTCTGGGTGATATGGCCTATTCTGATTGGGTGTGGTTGCGGAGTCACCTAGTGCAG” to “GCCCACCACCGCCATTCGCCACCACCTCGCCTCCGATTCACGGAGTCACCTAGTGCAG”, the binding signal falls from 3400 fluorescence intensity (a.u.) to 3250 fluorescence intensity (a.u.).

First: CTCGATTCTTCTGCAGCTGGGCGGGAGGGGAGGCGTGGCGCGGAGTCACCTAGTGCAG
Second: TGAGATCTGACATCATCAAATGTTTAGTTAATCTACTGTTCGGAGTCACCTAGTGCAG
The binding signal of the first is lower: 3250 fluorescence intensity (a.u.) for the first, 8070 fluorescence intensity (a.u.) for the second.

Compared with “TGGCTGGCGTGTTCGCTTCCGGTGGTATCCACATCGCCCCCGGAGTCACCTAGTGCAG”, “TGACCACAGTGCTGACCTGTAGGAATCTGCCACGTGGCAGCGGAGTCACCTAGTGCAG” is higher in binding signal: 3280 fluorescence intensity (a.u.) for the first, 23200 fluorescence intensity (a.u.) for the second.

First: AAACAAAGCAAAGGAAGGTCAATGACAACGTGGGATTATTCGGAGTCACCTAGTGCAG
Second: GGATTATCAGCACCTCGAAGTGGGGCGACAAGGTGGGATCCGGAGTCACCTAGTGCAG
The binding signal of the first is lower: 4340 fluorescence intensity (a.u.) for the first, 34900 fluorescence intensity (a.u.) for the second.

First: CTCGCCGGCCACGTCACCTGCCCTGTCTGTCGGTGCAACCCGGAGTCACCTAGTGCAG
Second: CCCCACGTTCCGGTGGTGCCCACGCGTCATAGACGGTTAACGGAGTCACCTAGTGCAG
The binding signal of the first is higher: 15400 fluorescence intensity (a.u.) for the first, 3460 fluorescence intensity (a.u.) for the second.

First: GTGCGCGCGCGCCGCCTGGCGCCACGCACGCCATGCACGCCGGAGTCACCTAGTGCAG
Second: CCTCCGCCACACCCGCGCCACCCGCTCCCTTCGCCGGCTCCGGAGTCACCTAGTGCAG
The binding signal of the first is higher: 5210 fluorescence intensity (a.u.) for the first, 3240 fluorescence intensity (a.u.) for the second.

Going from “GTCGCGCGCTTGGTGGCTTGCAAGAACCAGCTCCACCGCGCGGAGTCACCTAGTGCAG” to “CGTGGCCCACGTAAACGTCACGCTCACGTCTCCTTTACTCCGGAGTCACCTAGTGCAG”, the binding signal rises from 3300 fluorescence intensity (a.u.) to 7390 fluorescence intensity (a.u.).

Compared with “CTACACGTGATTCCAGCGTTGGAATCATCACGATTCTCGACGGAGTCACCTAGTGCAG”, “AGCTAGGATGGTGCTGACGCTTAGGTTACAGTTTACTTTTCGGAGTCACCTAGTGCAG” is higher in binding signal: 3660 fluorescence intensity (a.u.) for the first, 6370 fluorescence intensity (a.u.) for the second.

Compared with “GAAATCTGAACAACCAAGTTACTACTGTACTTATGTTAGTCGGAGTCACCTAGTGCAG”, “ATTACACATTATTATCGGTTGCATGAAAATTAACCACATTCGGAGTCACCTAGTGCAG” is higher in binding signal: 20700 fluorescence intensity (a.u.) for the first, 27700 fluorescence intensity (a.u.) for the second.
